In this experiment the target is T1, GST-PTP1B-D181A (substrate-trapping mutant of PTP1B, GST fusion protein) (mouse) (UniProt P35821).
T1 sequence: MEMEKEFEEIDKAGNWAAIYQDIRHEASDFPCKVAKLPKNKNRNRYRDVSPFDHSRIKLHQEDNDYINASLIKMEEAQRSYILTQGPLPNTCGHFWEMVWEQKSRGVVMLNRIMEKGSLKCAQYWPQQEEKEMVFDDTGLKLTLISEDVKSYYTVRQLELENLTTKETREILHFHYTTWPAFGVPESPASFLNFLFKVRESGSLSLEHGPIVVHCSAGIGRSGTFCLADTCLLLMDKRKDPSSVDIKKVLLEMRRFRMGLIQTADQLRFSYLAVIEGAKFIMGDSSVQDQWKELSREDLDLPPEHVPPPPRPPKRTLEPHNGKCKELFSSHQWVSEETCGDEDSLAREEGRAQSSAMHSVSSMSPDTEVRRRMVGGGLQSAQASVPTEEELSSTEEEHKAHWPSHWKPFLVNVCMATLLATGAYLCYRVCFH
In words: pull-down; substrate trapping: GST-PTP1B-WT or GST-PTP1B-D181A bound on glutathione beads; lysates of retinal ex vivo explants or HEK-293T cells treated with 1 mM pervanadate for 30 min; 2 h at 4°C in substrate-trapping buffer; immunoblot with anti-Gab1 or anti-Myc; only the target purified. In general terms: A western blot detects proteins with antibodies after separation by electrophoresis.

These are yes or no findings as the source states them, for the method shown. In cells and extracts the contact can be indirect. Sequences can lack the tags named with a protein.

As to “Myc-tagged ΔPH-Gab1 (Gab1 with the PH domain deleted) (mouse) (domain or fragment)”, the binding entry is “no binding”.
